In publication PMC5084153, “Structural studies on MRG701 chromodomain reveal a novel dimerization interface of MRG proteins in green plants” (Protein & Cell, 2016) one finds binding data, which are given here for four molecules.

Where a chain is given by its changes, count along the chain named. Names and notes keep the numbering of the source. These are yes or no findings as the source states them, for the method shown. Some results given as binding are weak or reduced against the parent protein; the word gives no strength. Primed or numbered codes have the meaning given here. No end group written: not given here. Me3″ = trimethyl (trimethyl-lysine)

Experiment [1] concerns the target T1, MRG2 chromodomain mutant E75A (MRG2^CDE75A) (Arabidopsis) (UniProt Q4V3E2).
T1 sequence: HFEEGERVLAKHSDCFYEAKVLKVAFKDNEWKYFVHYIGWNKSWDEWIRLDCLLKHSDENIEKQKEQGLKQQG
The experiment is described as follows: ITC; MicroCal iTC200, 20°C, 20 mmol/L Tris pH 8.0, 100 mmol/L NaCl; protein 0.1-0.2 mmol/L in the cell, peptide 1-2 mmol/L in the syringe; one-site model; both purified. On the technique in general: Isothermal titration calorimetry measures the heat released or taken up as one component is titrated into another.

The target of experiment [2] is T2, MRG1 chromodomain (MRG1^CD, residues 28-110) (Arabidopsis thaliana) (UniProt Q94C32).
T2 sequence: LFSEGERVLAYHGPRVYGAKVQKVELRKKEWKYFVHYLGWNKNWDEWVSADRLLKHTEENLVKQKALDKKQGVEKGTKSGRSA
The experiment is described as above.

Experiment [3] has as its target T3, MRG2 chromodomain (MRG2^CD) (Arabidopsis, UniProt Q4V3E2 51-123).
T3 chain: T1 sequence with A25E
Described as above.

Experiment [4] has as its target T4, MRG1 chromodomain mutant W58A (MRG1^CDW58A) (Arabidopsis thaliana) (UniProt Q94C32).
T4 sequence: T2 sequence with W31A
Described as above.

Experiment [5] addresses T1, MRG2 chromodomain mutant E75A (MRG2^CDE75A) (Arabidopsis). The experiment is described as follows: SEC-MALS; Wyatt 015S5 (150 Å) column, 0.5 mL/min, 10 mmol/L Tris 8.0, 100 mmol/L NaCl; self-association of the chromodomain; both purified. Background: SEC sorts molecules by how far they enter the pores of the column.
The target of experiment [6] is T4, MRG1 chromodomain mutant W58A (MRG1^CDW58A) (Arabidopsis thaliana). The experiment is described as above.

Take “histone H3K36me3 peptide (residues 31-41) (from UniProt P68431 32-42)”: the binding entry in experiment [1], in experiment [2], in experiment [3] and in experiment [4] was “binds” each time.

B1: MRG2 chromodomain mutant E75A (MRG2^CDE75A) (domain or fragment, UniProt Q4V3E2 51-123)
chain: T1 sequence
B1: the binding entry in experiment [5] is listed as “no binding”.

B2: MRG1 chromodomain mutant W58A (MRG1^CDW58A) (domain or fragment, UniProt Q94C32 28-110)
chain: T2 sequence with W31A
As for B2, the binding entry in experiment [6] is on record as “no binding”.

B3: histone H3K4me3 peptide (residues 1-9) (peptide, UniProt P68431 2-10, looked up)
peptide: ARTK(Me3″)QTARK
notes: histone H3, residues 1-9, trimethylated at lysine 4
Take B3: the binding result in experiment [1] and in experiment [3] was “binds” in each case.
